Measured values from article PMC11055869.

Chains of the proteins cited; added tags and fusions are not shown.
UniProt P56546: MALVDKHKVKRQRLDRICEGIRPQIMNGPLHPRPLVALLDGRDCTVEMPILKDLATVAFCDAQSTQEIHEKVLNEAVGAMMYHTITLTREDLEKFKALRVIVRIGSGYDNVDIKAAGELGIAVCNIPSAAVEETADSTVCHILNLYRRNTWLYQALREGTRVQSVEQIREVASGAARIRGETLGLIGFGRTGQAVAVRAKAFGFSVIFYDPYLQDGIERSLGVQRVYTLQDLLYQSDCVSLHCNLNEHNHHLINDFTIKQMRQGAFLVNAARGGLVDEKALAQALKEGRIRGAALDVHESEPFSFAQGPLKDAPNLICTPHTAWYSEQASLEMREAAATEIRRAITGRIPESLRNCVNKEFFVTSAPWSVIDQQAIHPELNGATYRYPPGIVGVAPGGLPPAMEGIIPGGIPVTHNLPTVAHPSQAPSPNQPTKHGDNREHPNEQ
UniProt Q8CHY6: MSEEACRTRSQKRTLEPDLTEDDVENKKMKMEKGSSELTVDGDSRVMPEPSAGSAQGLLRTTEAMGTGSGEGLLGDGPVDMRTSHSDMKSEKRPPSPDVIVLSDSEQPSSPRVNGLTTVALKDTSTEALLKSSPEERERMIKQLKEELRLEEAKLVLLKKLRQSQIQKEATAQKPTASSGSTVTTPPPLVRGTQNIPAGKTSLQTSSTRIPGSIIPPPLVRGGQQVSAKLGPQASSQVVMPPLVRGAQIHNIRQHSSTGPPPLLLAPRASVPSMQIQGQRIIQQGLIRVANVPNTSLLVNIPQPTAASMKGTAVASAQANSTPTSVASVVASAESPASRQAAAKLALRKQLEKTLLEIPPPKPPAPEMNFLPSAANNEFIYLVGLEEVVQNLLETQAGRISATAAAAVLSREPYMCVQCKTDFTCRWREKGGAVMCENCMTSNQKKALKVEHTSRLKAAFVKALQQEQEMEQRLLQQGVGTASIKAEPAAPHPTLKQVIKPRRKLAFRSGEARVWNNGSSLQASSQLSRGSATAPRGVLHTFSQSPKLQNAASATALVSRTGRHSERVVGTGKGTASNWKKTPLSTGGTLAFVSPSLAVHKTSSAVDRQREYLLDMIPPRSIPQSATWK
UniProt Q3TKT4: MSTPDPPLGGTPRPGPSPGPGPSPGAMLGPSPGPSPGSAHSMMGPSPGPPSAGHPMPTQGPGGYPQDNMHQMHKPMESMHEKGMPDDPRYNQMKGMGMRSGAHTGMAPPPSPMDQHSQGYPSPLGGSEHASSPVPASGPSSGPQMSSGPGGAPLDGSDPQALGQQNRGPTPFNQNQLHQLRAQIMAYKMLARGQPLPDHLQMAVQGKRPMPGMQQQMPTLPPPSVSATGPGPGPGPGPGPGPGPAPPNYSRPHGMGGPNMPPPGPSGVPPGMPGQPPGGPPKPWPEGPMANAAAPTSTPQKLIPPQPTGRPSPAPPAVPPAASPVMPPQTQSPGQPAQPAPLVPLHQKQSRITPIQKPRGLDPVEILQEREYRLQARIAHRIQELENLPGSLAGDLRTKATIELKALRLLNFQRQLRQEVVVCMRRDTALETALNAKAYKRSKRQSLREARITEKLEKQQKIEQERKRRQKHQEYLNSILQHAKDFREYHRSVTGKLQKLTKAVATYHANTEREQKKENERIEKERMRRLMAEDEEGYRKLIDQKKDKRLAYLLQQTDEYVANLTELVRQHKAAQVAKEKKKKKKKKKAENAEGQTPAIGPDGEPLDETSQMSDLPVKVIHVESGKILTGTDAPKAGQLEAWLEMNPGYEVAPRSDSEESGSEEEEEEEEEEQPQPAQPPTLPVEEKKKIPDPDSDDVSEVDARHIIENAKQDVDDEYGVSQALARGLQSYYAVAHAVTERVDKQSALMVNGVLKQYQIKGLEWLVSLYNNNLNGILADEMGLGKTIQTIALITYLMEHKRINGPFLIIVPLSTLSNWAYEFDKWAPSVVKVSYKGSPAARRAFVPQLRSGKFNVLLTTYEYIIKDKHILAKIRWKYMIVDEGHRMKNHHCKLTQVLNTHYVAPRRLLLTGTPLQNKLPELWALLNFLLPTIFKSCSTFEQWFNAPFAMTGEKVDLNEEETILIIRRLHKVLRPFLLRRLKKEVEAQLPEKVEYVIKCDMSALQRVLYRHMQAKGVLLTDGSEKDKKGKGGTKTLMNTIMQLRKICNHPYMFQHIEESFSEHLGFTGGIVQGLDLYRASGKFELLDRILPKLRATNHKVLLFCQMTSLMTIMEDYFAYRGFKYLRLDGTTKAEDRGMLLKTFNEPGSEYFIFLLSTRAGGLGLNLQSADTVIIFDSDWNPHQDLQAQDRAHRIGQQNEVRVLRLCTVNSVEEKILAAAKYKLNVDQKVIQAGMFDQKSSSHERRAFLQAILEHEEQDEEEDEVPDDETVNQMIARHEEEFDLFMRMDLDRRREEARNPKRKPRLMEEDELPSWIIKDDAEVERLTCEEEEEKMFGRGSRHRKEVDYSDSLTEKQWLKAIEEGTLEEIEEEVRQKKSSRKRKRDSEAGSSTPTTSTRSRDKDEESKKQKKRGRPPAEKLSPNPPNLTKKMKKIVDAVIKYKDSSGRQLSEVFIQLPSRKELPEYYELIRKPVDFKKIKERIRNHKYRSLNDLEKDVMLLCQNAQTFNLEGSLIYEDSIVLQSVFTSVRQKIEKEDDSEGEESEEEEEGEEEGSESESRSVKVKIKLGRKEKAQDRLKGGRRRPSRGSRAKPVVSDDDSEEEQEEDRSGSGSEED
UniProt Q91ZW3: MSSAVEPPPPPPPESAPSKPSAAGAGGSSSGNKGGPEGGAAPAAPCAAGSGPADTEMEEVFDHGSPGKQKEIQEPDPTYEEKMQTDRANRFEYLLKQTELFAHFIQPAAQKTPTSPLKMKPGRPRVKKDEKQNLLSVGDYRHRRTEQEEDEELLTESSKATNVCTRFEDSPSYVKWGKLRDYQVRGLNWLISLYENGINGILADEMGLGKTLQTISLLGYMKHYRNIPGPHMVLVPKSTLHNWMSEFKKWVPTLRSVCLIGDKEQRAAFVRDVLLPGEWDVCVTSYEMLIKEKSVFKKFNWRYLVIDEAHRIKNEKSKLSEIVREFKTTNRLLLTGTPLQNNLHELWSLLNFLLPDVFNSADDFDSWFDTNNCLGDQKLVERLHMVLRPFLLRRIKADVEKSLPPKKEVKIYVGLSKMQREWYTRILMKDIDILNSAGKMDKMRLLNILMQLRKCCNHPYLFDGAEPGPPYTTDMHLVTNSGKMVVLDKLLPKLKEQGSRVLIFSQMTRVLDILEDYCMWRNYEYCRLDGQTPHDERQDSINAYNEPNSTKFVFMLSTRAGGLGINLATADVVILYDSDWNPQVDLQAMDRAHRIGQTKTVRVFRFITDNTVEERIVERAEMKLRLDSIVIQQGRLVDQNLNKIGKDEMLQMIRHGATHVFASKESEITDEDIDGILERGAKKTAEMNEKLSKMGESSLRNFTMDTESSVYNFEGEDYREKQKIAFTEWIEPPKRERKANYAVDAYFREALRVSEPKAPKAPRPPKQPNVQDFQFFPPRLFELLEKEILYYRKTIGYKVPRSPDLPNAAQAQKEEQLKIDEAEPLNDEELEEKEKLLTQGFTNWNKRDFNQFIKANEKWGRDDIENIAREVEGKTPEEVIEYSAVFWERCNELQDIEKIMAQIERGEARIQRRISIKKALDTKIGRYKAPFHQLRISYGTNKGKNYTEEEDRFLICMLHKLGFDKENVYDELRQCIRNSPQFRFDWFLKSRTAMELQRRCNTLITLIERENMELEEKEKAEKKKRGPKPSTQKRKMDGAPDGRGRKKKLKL
UniProt Q99JR8: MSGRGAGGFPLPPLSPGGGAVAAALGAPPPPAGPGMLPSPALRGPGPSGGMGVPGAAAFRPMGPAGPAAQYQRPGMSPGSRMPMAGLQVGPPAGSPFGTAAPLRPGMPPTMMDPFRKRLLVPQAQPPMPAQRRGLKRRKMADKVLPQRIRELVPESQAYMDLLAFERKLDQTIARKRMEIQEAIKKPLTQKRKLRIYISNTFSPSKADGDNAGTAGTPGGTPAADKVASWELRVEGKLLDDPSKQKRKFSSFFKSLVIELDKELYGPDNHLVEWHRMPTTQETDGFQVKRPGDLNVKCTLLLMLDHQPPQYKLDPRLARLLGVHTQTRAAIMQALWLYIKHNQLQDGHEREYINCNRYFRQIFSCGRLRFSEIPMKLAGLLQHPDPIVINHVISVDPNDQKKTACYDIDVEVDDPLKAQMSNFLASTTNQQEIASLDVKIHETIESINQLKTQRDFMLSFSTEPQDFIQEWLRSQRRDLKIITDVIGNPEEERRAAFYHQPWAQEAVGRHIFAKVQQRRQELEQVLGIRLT

Target: T1, SATB2 (mouse (endogenous in colonic glands)) (UniProt Q8VI24)
T1 sequence: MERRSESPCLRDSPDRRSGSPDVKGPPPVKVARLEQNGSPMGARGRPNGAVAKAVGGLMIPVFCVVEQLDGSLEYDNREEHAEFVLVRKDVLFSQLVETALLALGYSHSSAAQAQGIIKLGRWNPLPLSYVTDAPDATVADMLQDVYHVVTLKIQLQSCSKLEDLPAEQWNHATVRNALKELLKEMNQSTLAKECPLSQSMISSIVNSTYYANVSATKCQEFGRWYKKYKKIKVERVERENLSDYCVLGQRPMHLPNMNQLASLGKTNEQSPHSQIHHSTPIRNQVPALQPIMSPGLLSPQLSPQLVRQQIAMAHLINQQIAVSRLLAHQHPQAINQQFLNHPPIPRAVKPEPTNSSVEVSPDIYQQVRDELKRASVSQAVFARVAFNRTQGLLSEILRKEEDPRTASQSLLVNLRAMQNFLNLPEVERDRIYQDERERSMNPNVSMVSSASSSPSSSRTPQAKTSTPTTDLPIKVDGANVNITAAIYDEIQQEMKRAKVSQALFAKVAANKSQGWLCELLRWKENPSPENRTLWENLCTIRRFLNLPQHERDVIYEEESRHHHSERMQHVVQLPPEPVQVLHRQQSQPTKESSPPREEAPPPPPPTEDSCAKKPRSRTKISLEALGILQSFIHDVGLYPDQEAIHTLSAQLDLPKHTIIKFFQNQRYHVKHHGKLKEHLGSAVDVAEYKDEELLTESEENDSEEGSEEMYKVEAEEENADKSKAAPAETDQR
Assay: affinity purification with mass spectrometry; anti-SATB2 antibody on protein A/G magnetic beads; mouse proximal colon epithelial glands cross-linked with 2 mM DSG, lysed in 0.3 M RIPA buffer, 6 washes; gel region over 100 kDa analysed by LC-MS/MS; IgG control

Q: Which binding does the source give for CTBP2 (from UniProt P56546 1-445) here?
A: The binding was “binds”.

Q: GATAD2A (from UniProt Q8CHY6 1-629) was tested. Which binding did it give?
A: The binding was “binds”.

Q: With SMARCA4 (from UniProt Q3TKT4 1-1613) as the substance, how does the binding read?
A: Its binding is “binds”.

Q: SMARCA5 (from UniProt Q91ZW3 1-1051) was tested. Which binding did it give?
A: The binding was “binds”.

Q: For SMARCD2 (from UniProt Q99JR8 1-531), which binding is on record?
A: The binding was “binds”.

These are yes or no findings as the source states them, for the method shown. Binding seen in cells or lysates may run through a third protein. A yes stands for co-enrichment or nearness to the bait. Other partners may have been found.
